At least one peptide structure holds a part that was inferred or is arguable (an end, a ring closure or a residue). No end group written: not given here.
Assay: Characteristics of Phl p 2-derived synthetic peptides (isoelectric point)
Format: physicochemical
Source text: Table 1: Characteristics of Phl p 2-derived synthetic peptides. […] Peptide 1 corresponds to SEQ ID NO:3, Peptide 3 corresponds to SEQ ID NO:4 and Peptide 2 corresponds to SEQ ID NO:5.

With “VPKVTFTVEKGSNEKHLAVLVKYEGDTMAEVELC [Peptide 1]” as the sequence, how does the Isoelectric point read?
The Isoelectric point was 4.87.

From patent US20090148466A1, “Process for the Preparation of Hypoallergenic Mosaic Antigens” (BIOMAY AG, priority 2003, published 2009)
